B1: Nup107 (protein, UniProt P57740 1-925)
chain: MDRSGFGEISSPVIREAEVTRTARKQSAQKRVLLQASQDENFGNTTPRNQVIPRTPSSFRQPFTPTSRSLLRQPDISCILGTGGKSPRLTQSSGFFGNLSMVTNLDDSNWAAAFSSQRSGLFTNTEPHSITEDVTISAVMLREDDPGEAASMSMFSDFLQSFLKHSSSTVFDLVEEYENICGSQVNILSKIVSRATPGLQKFSKTASMLWLLQQEMVTWRLLASLYRDRIQSALEEESVFAVTAVNASEKTVVEALFQRDSLVRQSQLVVDWLESIAKDEIGEFSDNIEFYAKSVYWENTLHTLKQRQLTSYVGSVRPLVTELDPDAPIRQKMPLDDLDREDEVRLLKYLFTLIRAGMTEEAQRLCKRCGQAWRAATLEGWKLYHDPNVNGGTELEPVEGNPYRRIWKISCWRMAEDELFNRYERAIYAALSGNLKQLLPVCDTWEDTVWAYFRVMVDSLVEQEIQTSVATLDETEELPREYLGANWTLEKVFEELQATDKKRVLEENQEHYHIVQKFLILGDIDGLMDEFSKWLSKSRNNLPGHLLRFMTHLILFFRTLGLQTKEEVSIEVLKTYIQLLIREKHTNLIAFYTCHLPQDLAVAQYALFLESVTEFEQRHHCLELAKEADLDVATITKTVVENIRKKDNGEFSHHDLAPALDTGTTEEDRLKIDVIDWLVFDPAQRAEALKQGNAIMRKFLASKKHEAAKEVFVKIPQDSIAEIYNQCEEQGMESPLPAEDDNAIREHLCIRAYLEAHETFNEWFKHMNSVPQKPALIPQPTFTEKVAHEHKEKKYEMDFGIWKGHLDALTADVKEKMYNVLLFVDGGWMVDVREDAKEDHERTHQMVLLRKLCLPMLCFLLHTILHSTGQYQECLQLADMVSSERHKLYLVFSKEELRKLLQKLRESSLMLLDQGLDPLGYEIQL

By UniProt entry, the sequences of proteins in these tests, tags left out.
UniProt O88466: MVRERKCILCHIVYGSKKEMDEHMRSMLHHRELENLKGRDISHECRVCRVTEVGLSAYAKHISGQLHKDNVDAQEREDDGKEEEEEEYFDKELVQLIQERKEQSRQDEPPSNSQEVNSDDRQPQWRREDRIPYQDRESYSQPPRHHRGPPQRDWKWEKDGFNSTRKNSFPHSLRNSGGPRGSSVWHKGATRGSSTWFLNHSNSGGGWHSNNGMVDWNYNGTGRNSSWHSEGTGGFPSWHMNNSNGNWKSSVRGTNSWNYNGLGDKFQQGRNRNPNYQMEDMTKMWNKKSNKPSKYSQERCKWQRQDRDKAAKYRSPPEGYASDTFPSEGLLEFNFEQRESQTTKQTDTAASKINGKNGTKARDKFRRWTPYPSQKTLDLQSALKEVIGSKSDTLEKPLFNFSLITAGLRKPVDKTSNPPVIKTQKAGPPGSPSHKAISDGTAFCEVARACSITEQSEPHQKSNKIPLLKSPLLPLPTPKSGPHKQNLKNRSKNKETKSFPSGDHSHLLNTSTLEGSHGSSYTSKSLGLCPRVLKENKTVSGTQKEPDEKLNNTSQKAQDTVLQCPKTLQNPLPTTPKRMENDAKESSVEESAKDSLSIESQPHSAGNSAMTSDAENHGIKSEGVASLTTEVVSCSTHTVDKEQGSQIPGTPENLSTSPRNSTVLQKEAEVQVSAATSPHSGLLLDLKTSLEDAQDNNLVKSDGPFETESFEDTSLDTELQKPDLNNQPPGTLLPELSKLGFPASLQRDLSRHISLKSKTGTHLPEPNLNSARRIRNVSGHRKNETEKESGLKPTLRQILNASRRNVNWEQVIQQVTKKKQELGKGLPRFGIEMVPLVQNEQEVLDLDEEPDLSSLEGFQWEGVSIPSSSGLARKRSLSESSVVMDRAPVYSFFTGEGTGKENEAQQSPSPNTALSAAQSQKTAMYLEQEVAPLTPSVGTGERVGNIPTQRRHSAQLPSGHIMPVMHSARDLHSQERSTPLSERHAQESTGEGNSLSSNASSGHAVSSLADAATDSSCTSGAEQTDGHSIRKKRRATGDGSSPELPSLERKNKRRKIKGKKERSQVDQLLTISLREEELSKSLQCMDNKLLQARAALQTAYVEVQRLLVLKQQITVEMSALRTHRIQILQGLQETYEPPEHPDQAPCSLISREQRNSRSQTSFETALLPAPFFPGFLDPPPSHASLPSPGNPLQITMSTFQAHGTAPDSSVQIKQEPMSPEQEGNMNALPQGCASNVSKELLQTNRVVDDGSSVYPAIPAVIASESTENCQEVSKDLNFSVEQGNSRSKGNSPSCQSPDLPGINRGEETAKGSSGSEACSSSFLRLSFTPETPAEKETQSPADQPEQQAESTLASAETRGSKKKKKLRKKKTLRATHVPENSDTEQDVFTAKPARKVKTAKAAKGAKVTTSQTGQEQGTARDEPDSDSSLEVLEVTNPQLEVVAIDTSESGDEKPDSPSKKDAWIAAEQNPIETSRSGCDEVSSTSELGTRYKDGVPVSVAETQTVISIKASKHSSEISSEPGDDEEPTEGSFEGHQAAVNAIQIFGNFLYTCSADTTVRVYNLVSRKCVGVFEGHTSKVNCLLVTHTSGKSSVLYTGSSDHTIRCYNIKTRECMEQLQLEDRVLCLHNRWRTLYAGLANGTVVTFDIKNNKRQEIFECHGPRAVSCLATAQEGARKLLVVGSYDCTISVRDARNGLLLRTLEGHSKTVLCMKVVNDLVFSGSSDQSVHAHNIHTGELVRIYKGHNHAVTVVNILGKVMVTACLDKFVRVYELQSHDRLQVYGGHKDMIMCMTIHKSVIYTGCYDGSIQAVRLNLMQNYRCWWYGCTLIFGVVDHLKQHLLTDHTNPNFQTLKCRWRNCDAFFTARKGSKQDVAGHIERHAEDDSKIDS
UniProt P35637: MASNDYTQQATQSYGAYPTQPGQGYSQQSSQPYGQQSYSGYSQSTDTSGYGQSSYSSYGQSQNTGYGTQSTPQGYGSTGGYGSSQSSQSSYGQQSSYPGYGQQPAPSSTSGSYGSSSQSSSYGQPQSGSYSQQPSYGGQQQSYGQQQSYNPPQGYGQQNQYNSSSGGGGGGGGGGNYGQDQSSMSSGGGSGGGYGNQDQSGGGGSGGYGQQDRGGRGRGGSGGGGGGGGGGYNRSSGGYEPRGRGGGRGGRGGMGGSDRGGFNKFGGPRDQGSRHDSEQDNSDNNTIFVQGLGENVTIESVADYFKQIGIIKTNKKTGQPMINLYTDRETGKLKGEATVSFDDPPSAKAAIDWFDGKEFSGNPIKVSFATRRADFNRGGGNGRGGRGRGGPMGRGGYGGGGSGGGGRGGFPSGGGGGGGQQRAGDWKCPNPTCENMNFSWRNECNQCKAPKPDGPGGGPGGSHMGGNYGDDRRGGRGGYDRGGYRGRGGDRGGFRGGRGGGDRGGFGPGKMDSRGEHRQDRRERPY
UniProt Q13148: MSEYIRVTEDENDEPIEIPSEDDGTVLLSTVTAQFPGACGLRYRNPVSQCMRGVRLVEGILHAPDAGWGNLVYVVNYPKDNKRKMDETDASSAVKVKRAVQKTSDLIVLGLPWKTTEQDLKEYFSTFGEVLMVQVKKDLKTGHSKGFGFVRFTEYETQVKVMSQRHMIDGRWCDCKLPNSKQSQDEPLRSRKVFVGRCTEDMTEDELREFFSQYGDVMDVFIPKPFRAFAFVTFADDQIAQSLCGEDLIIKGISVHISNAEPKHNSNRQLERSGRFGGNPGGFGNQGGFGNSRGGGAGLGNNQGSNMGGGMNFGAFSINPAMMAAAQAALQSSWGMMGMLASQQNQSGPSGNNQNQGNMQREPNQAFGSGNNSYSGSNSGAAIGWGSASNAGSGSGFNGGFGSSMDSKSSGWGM

Here are results for three molecules from PMC5283830, “Suppression of C9orf72 RNA repeat-induced neurotoxicity by the ALS-associated RNA-binding protein Zfp106”.

These are yes or no findings as the source states them, for the method shown. Binding seen in cells or lysates may run through a third protein. Here binding means that the protein was enriched with, or labelled near, the bait; the list need not be complete.

For this experiment, the target named is 3×FLAG-2×STREP-Zfp106 (mouse) (UniProt O88466). The experiment in a line: affinity purification with mass spectrometry; 3×FLAG-2×STREP-Zfp106 from nuclear extracts of transfected HEK293T cells, benzonase digestion (100 U/ml, 30 min, 1 mM MgCl2), anti-FLAG(M2) magnetic beads 2 hr at 4°C, elution with 3×FLAG peptide, LC-MS/MS; MiST scoring against control baits, top 5% MiST score.
Take FUS (from UniProt P35637 1-526): the binding entry is recorded as “binds”.

Take TDP-43 (from UniProt Q13148 1-414): the binding entry is given as “binds”.

As for B1, the binding result is recorded as “binds”.
